Results deposited as PubChem BioAssay AID1159579 (Peter MacCallum Cancer Centre, 2015)

- Assay: 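Follow-up screen seeking modulators of motility in lymphatic endothelial cells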 (follow-up of hits)
- Cells: human dermal lymphatic endothelial cells
- Knock-down reagent: single siRNA against human genes, 25 nM
- Read-out: 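High content images of wound closure area and cell nuclei counts, each the average of two wells, expressed against mock transfection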
- Scale: migration relative to mock: higher = more migration into the scratch; mean nuclei count: higher = more cells remaining
- Hit rule: 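Called active when the migration ratio is 0.6 or lower (impaired) or 1.3 or higher (accelerated), but inactive whenever the mean nuclei count falls under 3300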
- Meaning of the calls: active = migration changed (impaired or accelerated); inactive = no migration change, or too few cells
The whole screen tested about 2,000 reagents; shown is a part drawn at random. 549 of them (27%) were called active. 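Some migration ratios are negative; siRNAs with too few cells are inactive whatever their migration ratio.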 A number with no mark means an inactive call. The numbers tell different reagents against one gene apart. Not given: the time to read-out.

gene	reagent	migration relative to mock	migration and cell number class	mean nuclei count
DGKE (diacylglycerol kinase epsilon)	1	1	no change in migration or cell number	6418
DGKE (diacylglycerol kinase epsilon)	2	0.84	no change in migration or cell number	6636
DGKE (diacylglycerol kinase epsilon)	3	0.81	no change in migration or cell number	6377
DGKE (diacylglycerol kinase epsilon)	4	-0.56	too few cells; migration not scored	1956
FLOT2 (flotillin 2)	1	0.85	no change in migration or cell number	5172
FLOT2 (flotillin 2)	2	1.09	no change in migration or cell number	4520
FLOT2 (flotillin 2)	3	0.73	no change in migration or cell number	5366
FLOT2 (flotillin 2)	4	1.08	no change in migration or cell number	5514
CARD10 (caspase recruitment domain family member 10)	1	0.6 (active)	migration reduced	4363
CARD10 (caspase recruitment domain family member 10)	2	0.14 (active)	migration reduced	4800
CARD10 (caspase recruitment domain family member 10)	3	0.58 (active)	migration reduced	5608
CARD10 (caspase recruitment domain family member 10)	4	0.94	no change in migration or cell number	6529
TBC1D24 (TBC1 domain family member 24)	1	0.12	too few cells; migration not scored	2380
TBC1D24 (TBC1 domain family member 24)	2	1.07	no change in migration or cell number	5795
TBC1D24 (TBC1 domain family member 24)	3	0.38 (active)	migration reduced	4104
TBC1D24 (TBC1 domain family member 24)	4	1.08	no change in migration or cell number	5592
ACP2 (acid phosphatase 2, lysosomal)	1	0.48 (active)	migration reduced	6456
ACP2 (acid phosphatase 2, lysosomal)	2	0.88	no change in migration or cell number	5432
ACP2 (acid phosphatase 2, lysosomal)	3	-0.2 (active)	migration reduced	5747
ACP2 (acid phosphatase 2, lysosomal)	4	0.52 (active)	migration reduced	6140
CALCOCO1 (calcium binding and coiled-coil domain 1)	1	0.94	no change in migration or cell number	4680
CALCOCO1 (calcium binding and coiled-coil domain 1)	2	0.7	no change in migration or cell number	6282
CALCOCO1 (calcium binding and coiled-coil domain 1)	3	0.68	too few cells; migration not scored	3213
CALCOCO1 (calcium binding and coiled-coil domain 1)	4	0.36 (active)	migration reduced	4210
NME3 (NME/NM23 nucleoside diphosphate kinase 3)	1	0.67	no change in migration or cell number	5189
NME3 (NME/NM23 nucleoside diphosphate kinase 3)	2	0.63	no change in migration or cell number	5742
NME3 (NME/NM23 nucleoside diphosphate kinase 3)	3	0.4 (active)	migration reduced	3848
NME3 (NME/NM23 nucleoside diphosphate kinase 3)	4	0.87	no change in migration or cell number	5974

Entries above with an active call:
gene	reagent	migration relative to mock	migration and cell number class	mean nuclei count
CARD10 (caspase recruitment domain family member 10)	1	0.6 (active)	migration reduced	4363
CARD10 (caspase recruitment domain family member 10)	2	0.14 (active)	migration reduced	4800
CARD10 (caspase recruitment domain family member 10)	3	0.58 (active)	migration reduced	5608
TBC1D24 (TBC1 domain family member 24)	3	0.38 (active)	migration reduced	4104
ACP2 (acid phosphatase 2, lysosomal)	1	0.48 (active)	migration reduced	6456
ACP2 (acid phosphatase 2, lysosomal)	3	-0.2 (active)	migration reduced	5747
ACP2 (acid phosphatase 2, lysosomal)	4	0.52 (active)	migration reduced	6140
CALCOCO1 (calcium binding and coiled-coil domain 1)	4	0.36 (active)	migration reduced	4210
NME3 (NME/NM23 nucleoside diphosphate kinase 3)	3	0.4 (active)	migration reduced	3848

The list goes on.
gene	reagent	migration relative to mock	migration and cell number class	mean nuclei count
ADNP (activity dependent neuroprotector homeobox)	1	1.06	no change in migration or cell number	6132
ADNP (activity dependent neuroprotector homeobox)	2	1.04	no change in migration or cell number	6288
ADNP (activity dependent neuroprotector homeobox)	3	0.78	no change in migration or cell number	5555
ADNP (activity dependent neuroprotector homeobox)	4	1.03	no change in migration or cell number	5423
CLIP2 (CAP-Gly domain containing linker protein 2)	1	0.8	no change in migration or cell number	5872
CLIP2 (CAP-Gly domain containing linker protein 2)	2	0.9	no change in migration or cell number	6264
CLIP2 (CAP-Gly domain containing linker protein 2)	3	1.11	no change in migration or cell number	6265
CLIP2 (CAP-Gly domain containing linker protein 2)	4	-0.12 (active)	migration reduced	4270
APOBEC3D (apolipoprotein B mRNA editing enzyme catalytic subunit 3D)	1	0.57 (active)	migration reduced	5344
APOBEC3D (apolipoprotein B mRNA editing enzyme catalytic subunit 3D)	2	-0.02 (active)	migration reduced	4121
APOBEC3D (apolipoprotein B mRNA editing enzyme catalytic subunit 3D)	3	0.51 (active)	migration reduced	4626
APOBEC3D (apolipoprotein B mRNA editing enzyme catalytic subunit 3D)	4	0.86	no change in migration or cell number	5455
SLC9B2	1	0.8	no change in migration or cell number	3386
SLC9B2	2	0.75	no change in migration or cell number	5111
SLC9B2	3	0.92	no change in migration or cell number	5188
SLC9B2	4	1.02	no change in migration or cell number	5042
SH3GL1 (SH3 domain containing GRB2 like 1, endophilin A2)	1	0.73	no change in migration or cell number	5518
SH3GL1 (SH3 domain containing GRB2 like 1, endophilin A2)	2	0.46 (active)	migration reduced	4892
SH3GL1 (SH3 domain containing GRB2 like 1, endophilin A2)	3	0.97	no change in migration or cell number	5322
SH3GL1 (SH3 domain containing GRB2 like 1, endophilin A2)	4	0.68	no change in migration or cell number	5856
CSK (C-terminal Src kinase)	1	0.78	no change in migration or cell number	6154
CSK (C-terminal Src kinase)	2	1.1	no change in migration or cell number	5184
CSK (C-terminal Src kinase)	3	0.92	no change in migration or cell number	6300
CSK (C-terminal Src kinase)	4	0.14 (active)	migration reduced	5114
KRT13 (keratin 13)	1	1	no change in migration or cell number	5294
KRT13 (keratin 13)	2	-0.09 (active)	migration reduced	4998
KRT13 (keratin 13)	3	1.27	no change in migration or cell number	5909
KRT13 (keratin 13)	4	0.74	no change in migration or cell number	4845
SNRPD1 (small nuclear ribonucleoprotein D1 polypeptide)	1	1.01	no change in migration or cell number	5732
SNRPD1 (small nuclear ribonucleoprotein D1 polypeptide)	2	0.63	no change in migration or cell number	5016
SNRPD1 (small nuclear ribonucleoprotein D1 polypeptide)	3	0.68	no change in migration or cell number	5452
SNRPD1 (small nuclear ribonucleoprotein D1 polypeptide)	4	0.66	no change in migration or cell number	4432
IGLL1 (immunoglobulin lambda like polypeptide 1)	1	0.82	no change in migration or cell number	6392
IGLL1 (immunoglobulin lambda like polypeptide 1)	2	0.3	too few cells; migration not scored	2788
IGLL1 (immunoglobulin lambda like polypeptide 1)	3	0.74	no change in migration or cell number	4006
IGLL1 (immunoglobulin lambda like polypeptide 1)	4	0.58 (active)	migration reduced	4834
STAU1 (staufen double-stranded RNA binding protein 1)	1	0.6 (active)	migration reduced	6847
STAU1 (staufen double-stranded RNA binding protein 1)	2	1.03	no change in migration or cell number	6136
STAU1 (staufen double-stranded RNA binding protein 1)	3	0.9	no change in migration or cell number	4824
STAU1 (staufen double-stranded RNA binding protein 1)	4	1.03	no change in migration or cell number	4688
